According to patent US12667546B2, “Methods for manipulating cell state transitions in cancer” (AGENCY FOR SCIENCE, TECHNOLOGY AND RESEARCH, priority 2018, dated 2026):

Key:
[1] = tested on: NAMEC8-SERPINE1prom-Luc cells; experiment: Renilla-luciferase (constitutive CMV promoter) readout for cell numbers; assay type: cell-based, human; details: primary screen; Renilla as readout for cell numbers; relative to DMSO
[2] = tested on: SERPINE1prom-Luc reporter in NAMEC8 cells; experiment: Dual-Glo luciferase assay of SERPINE1prom-Luc reporter (FF/Ren); assay type: cell-based, human; details: primary screen; NAMEC8-SERPINE1prom-Luc cells grown 3 days with compound; relative to DMSO
Excerpt: pGreenFire1-mCMV was cut using ClaI and SpeI and gel purified. Promoter sequences of genes Zeb1, Serpine1, CDH1, CD24, CD44, CD166 were amplified from human genomic DNA with pre-designed primers containing ClaI and SpeI restriction cut sites using AccuPrime Taq DNA Polymerase (Thermo Fisher Scientific). PCR products were then digested with restriction enzymes and gel-purified. Vector was ligated with PCR insert using Quick Ligase (Fermentas) and transformed into Stb12 competent cells. Colonies were picked and inoculated into TB media with ampicillin. Plasmids were then isolated using a plasmid miniprep kit (Qiagen) and sent for sequencing (1 stBASE Laboratories). […]
Stock plates of compound libraries were kindly prepared by GIS CHiP facility at 1 mM concentration in DMSO. […] Cells were then grown for 3 days and promoter-luciferase activity was measured using the Dual-Glo Luciferase System (Promega).
Assay was carried out according to manufacturer's instructions. […] Firefly luciferase activity was determined by adding 30 μl Dual-Glo Luciferase substrate (Promega) to the wells and incubated for 10 min before measuring luminescence using a TECAN M1000 Pro plate reader. 15 μl Dual-Glo Stop & Glo substrate was then added to the wells, incubated for 10 min and measuring luminescence on the plate reader to determine Renilla luciferase activity. […]

Structure (SMILES): Cc1ccccc1-n1c(Cn2nc(-c3cccc(O)c3)c3c(N)ncnc32)nc2cccc(C)c2c1=O [PIK-294]
- % Avr Renilla from DMSO [1]: 81.52%
- Avr FF/Renilla from DMSO [2]: 0.68
